Measured values taken from PMC6363177, “R pyocin tail fiber structure reveals a receptor-binding domain with a lectin fold” (PLoS ONE, 2019).
Results are given in words; binding and its absence hold for the method and conditions named. In cells and extracts the contact can be indirect. Some results given as binding are weak or reduced against the parent protein; the word gives no strength.

Protein sequences, listed by entry. Tags and fused reporters are not part of them.
UniProt G3XD08: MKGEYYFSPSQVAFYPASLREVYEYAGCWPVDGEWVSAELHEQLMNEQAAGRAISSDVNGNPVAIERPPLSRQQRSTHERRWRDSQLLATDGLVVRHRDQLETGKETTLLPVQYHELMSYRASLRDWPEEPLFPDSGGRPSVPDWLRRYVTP

Target: T1, R2-subtype N-terminally truncated tail fiber fragment (R2-NTF) (Pseudomonas aeruginosa PAO1) (UniProt G3XD71)
T1 sequence: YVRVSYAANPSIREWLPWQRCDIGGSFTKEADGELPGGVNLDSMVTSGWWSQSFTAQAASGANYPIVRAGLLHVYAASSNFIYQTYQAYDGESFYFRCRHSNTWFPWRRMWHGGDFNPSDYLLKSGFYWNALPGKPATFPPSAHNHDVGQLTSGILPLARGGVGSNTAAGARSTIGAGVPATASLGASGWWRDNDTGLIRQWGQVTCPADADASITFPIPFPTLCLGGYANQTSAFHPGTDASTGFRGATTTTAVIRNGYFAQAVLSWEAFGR
Test: pull-down; co-expression in E. coli BL21 (DE3); lysate on HisTrap FF Ni-IMAC column; wash 50mM Tris pH 8.0, 150mM NaCl, 10mM imidazole, 5% glycerol; elution with 300mM imidazole; chaperone co-purifies with the his-tagged NTF

## R2-subtype tail fiber chaperone PA0621 (from UniProt G3XD08 1-152)
  binding: binds
